Measured values as given in paper PMC12505981.

By UniProt entry, the sequences of proteins in these tests, tags left out. Where a name states a change or a piece, a line headed by the entry shows the natural chain unless it says otherwise.
UniProt P0AC30: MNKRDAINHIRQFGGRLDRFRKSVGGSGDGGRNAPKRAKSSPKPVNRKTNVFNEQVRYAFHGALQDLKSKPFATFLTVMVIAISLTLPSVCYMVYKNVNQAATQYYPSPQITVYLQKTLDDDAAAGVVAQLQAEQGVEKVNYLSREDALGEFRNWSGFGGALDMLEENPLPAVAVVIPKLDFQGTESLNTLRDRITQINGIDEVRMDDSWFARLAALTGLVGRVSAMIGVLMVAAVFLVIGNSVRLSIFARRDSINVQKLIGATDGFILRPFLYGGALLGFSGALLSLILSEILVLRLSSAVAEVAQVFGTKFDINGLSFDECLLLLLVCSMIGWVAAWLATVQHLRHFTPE

Legend:
[1] = biological target: FtsX periplasmic domain (bacterial two-hybrid fusion) (E. coli) (UniProt P0AC30); assay: two-hybrid; BACTH (T18 and T25 fusions of split CyaA) in the cytoplasm of E. coli BTH101; cultures spotted on LB agar with X-gal and 0.5 mM IPTG, 20°C, 3 days
[2] = biological target: EnvC-FtsX periplasmic domain complex (wild-type) (E. coli); assay: pull-down; cleared E. coli C43(DE3) lysates mixed and incubated with Ni-IMAC resin overnight at 4°C; washed with 26 mM imidazole, 300 mM NaCl, 50 mM HEPES pH 7.2; eluted with 250 mM imidazole; SDS-PAGE; AmiA untagged
[3] = biological target: EnvC(ΔCC) I240E (E. coli); assay: as above
[4] = biological target: EnvC(ΔCC) (wild-type) (E. coli); assay: as above
[5] = biological target: EnvC-FtsX periplasmic domain complex (wild-type) (E. coli); assay: pull-down; cysteine locking experiment without TCEP: cleared lysate of the EnvC-FtsX periplasmic domain complex mixed with lysate of untagged AmiA, Ni-IMAC overnight at 4°C, wash 35 mM imidazole, 300 mM NaCl, 50 mM HEPES pH 7.2; SDS-PAGE
[6] = biological target: EnvC-FtsX periplasmic domain complex (wild-type) (E. coli); assay: pull-down; cysteine locking experiment with 5 mM TCEP in lysates and washes: cleared lysate of the EnvC-FtsX periplasmic domain complex mixed with lysate of untagged AmiA, Ni-IMAC overnight at 4°C, wash 35 mM imidazole, 300 mM NaCl, 50 mM HEPES pH 7.2; SDS-PAGE
[7] = biological target: FtsX periplasmic domain (His-tagged) (E. coli) (UniProt P0AC30); assay: pull-down; cleared E. coli C43(DE3) lysates mixed and incubated with Ni-IMAC resin overnight at 4°C; washed with 26 mM imidazole, 300 mM NaCl, 50 mM HEPES pH 7.2; eluted with 250 mM imidazole; SDS-PAGE; AmiA untagged

Binder | binding [1] | binding [7] | other results
EnvC Arg237Glu (bacterial two-hybrid fusion) (protein, UniProt P37690 35-419) DERDQLKSIQADIAAKERAVRQKQQQRASLLAQLKKQEEAISEATRKLRETQNTLNQLNKQIDEMNASIAKLEQQKAAQERSLAAQLDAAFRQGEHTGIQLILSGEESQRGQRLQAYFGYLNQARQETIAQLKQTREEVAMQRAELEEKQSEQQTLLYEQRAQQAKLTQALNERKKTLAGLESSIQQGQQQLSELRANESRLENSIARAEAAAKARAEREAREAQAVRDRQKEATRKGTTYKPTESEKSLMSRTGGLGAPRGQAFWPVRGPTLHRYGEQLQGELRWKGMVIGASEGTEVKAIADGRVILADWLQGYGLVVVVEHGKGDMSLYGYNQSALVSVGSQVRAGQPIALVGSSGGQGRPSLYFEIRRQGQAVNPQPWLGR | binds |  | 
EnvC (wild-type, mature form, bacterial two-hybrid fusion) (protein, UniProt P37690 35-419) DERDQLKSIQADIAAKERAVRQKQQQRASLLAQLKKQEEAISEATRKLRETQNTLNQLNKQIDEMNASIAKLEQQKAAQERSLAAQLDAAFRQGEHTGIQLILSGEESQRGQRLQAYFGYLNQARQETIAQLKQTREEVAMQRAELEEKQSEQQTLLYEQRAQQAKLTQALNERKKTLAGLESSIQQGQQQLSELRANESRLRNSIARAEAAAKARAEREAREAQAVRDRQKEATRKGTTYKPTESEKSLMSRTGGLGAPRGQAFWPVRGPTLHRYGEQLQGELRWKGMVIGASEGTEVKAIADGRVILADWLQGYGLVVVVEHGKGDMSLYGYNQSALVSVGSQVRAGQPIALVGSSGGQGRPSLYFEIRRQGQAVNPQPWLGR | binds |  | 
EnvC L236E (bacterial two-hybrid fusion) (protein, UniProt P37690 35-419) DERDQLKSIQADIAAKERAVRQKQQQRASLLAQLKKQEEAISEATRKLRETQNTLNQLNKQIDEMNASIAKLEQQKAAQERSLAAQLDAAFRQGEHTGIQLILSGEESQRGQRLQAYFGYLNQARQETIAQLKQTREEVAMQRAELEEKQSEQQTLLYEQRAQQAKLTQALNERKKTLAGLESSIQQGQQQLSELRANESRERNSIARAEAAAKARAEREAREAQAVRDRQKEATRKGTTYKPTESEKSLMSRTGGLGAPRGQAFWPVRGPTLHRYGEQLQGELRWKGMVIGASEGTEVKAIADGRVILADWLQGYGLVVVVEHGKGDMSLYGYNQSALVSVGSQVRAGQPIALVGSSGGQGRPSLYFEIRRQGQAVNPQPWLGR | binds |  | 
EnvC I240E (bacterial two-hybrid fusion) (protein, UniProt P37690 35-419) DERDQLKSIQADIAAKERAVRQKQQQRASLLAQLKKQEEAISEATRKLRETQNTLNQLNKQIDEMNASIAKLEQQKAAQERSLAAQLDAAFRQGEHTGIQLILSGEESQRGQRLQAYFGYLNQARQETIAQLKQTREEVAMQRAELEEKQSEQQTLLYEQRAQQAKLTQALNERKKTLAGLESSIQQGQQQLSELRANESRLRNSEARAEAAAKARAEREAREAQAVRDRQKEATRKGTTYKPTESEKSLMSRTGGLGAPRGQAFWPVRGPTLHRYGEQLQGELRWKGMVIGASEGTEVKAIADGRVILADWLQGYGLVVVVEHGKGDMSLYGYNQSALVSVGSQVRAGQPIALVGSSGGQGRPSLYFEIRRQGQAVNPQPWLGR | binds |  | 
EnvC I240K (bacterial two-hybrid fusion) (protein, UniProt P37690 35-419) DERDQLKSIQADIAAKERAVRQKQQQRASLLAQLKKQEEAISEATRKLRETQNTLNQLNKQIDEMNASIAKLEQQKAAQERSLAAQLDAAFRQGEHTGIQLILSGEESQRGQRLQAYFGYLNQARQETIAQLKQTREEVAMQRAELEEKQSEQQTLLYEQRAQQAKLTQALNERKKTLAGLESSIQQGQQQLSELRANESRLRNSKARAEAAAKARAEREAREAQAVRDRQKEATRKGTTYKPTESEKSLMSRTGGLGAPRGQAFWPVRGPTLHRYGEQLQGELRWKGMVIGASEGTEVKAIADGRVILADWLQGYGLVVVVEHGKGDMSLYGYNQSALVSVGSQVRAGQPIALVGSSGGQGRPSLYFEIRRQGQAVNPQPWLGR | binds |  | 
AmiA (untagged, over-expressed) (enzyme, UniProt P36548 35-289) KDELLKTSNGHSKPKAKKSGGKRVVVLDPGHGGIDTGAIGRNGSKEKHVVLAIAKNVRSILRNHGIDARLTRSGDTFIPLYDRVEIAHKHGADLFMSIHADGFTNPKAAGASVFALSNRGASSAMAKYLSERENRADEVAGKKATDKDHLLQQVLFDLVQTDTIKNSLTLGSHILKKIKPVHKLHSRNTEQAAFVVLKSPSVPSVLVETSFITNPEEERLLGTAAFRQKIATAIAEGVISYFHWFDNQKAHSKKR |  |  | binding [2]: binds weakly; binding [3]: binds; binding [4]: no binding; binding [5]: binds weakly; binding [6]: binds weakly
EnvC (wild-type, co-expressed with the FtsX periplasmic domain) (protein, UniProt P37690 35-419) DERDQLKSIQADIAAKERAVRQKQQQRASLLAQLKKQEEAISEATRKLRETQNTLNQLNKQIDEMNASIAKLEQQKAAQERSLAAQLDAAFRQGEHTGIQLILSGEESQRGQRLQAYFGYLNQARQETIAQLKQTREEVAMQRAELEEKQSEQQTLLYEQRAQQAKLTQALNERKKTLAGLESSIQQGQQQLSELRANESRLRNSIARAEAAAKARAEREAREAQAVRDRQKEATRKGTTYKPTESEKSLMSRTGGLGAPRGQAFWPVRGPTLHRYGEQLQGELRWKGMVIGASEGTEVKAIADGRVILADWLQGYGLVVVVEHGKGDMSLYGYNQSALVSVGSQVRAGQPIALVGSSGGQGRPSLYFEIRRQGQAVNPQPWLGR |  | binds | 
EnvC I240E (co-expressed with the FtsX periplasmic domain) (protein, UniProt P37690 35-419) DERDQLKSIQADIAAKERAVRQKQQQRASLLAQLKKQEEAISEATRKLRETQNTLNQLNKQIDEMNASIAKLEQQKAAQERSLAAQLDAAFRQGEHTGIQLILSGEESQRGQRLQAYFGYLNQARQETIAQLKQTREEVAMQRAELEEKQSEQQTLLYEQRAQQAKLTQALNERKKTLAGLESSIQQGQQQLSELRANESRLRNSEARAEAAAKARAEREAREAQAVRDRQKEATRKGTTYKPTESEKSLMSRTGGLGAPRGQAFWPVRGPTLHRYGEQLQGELRWKGMVIGASEGTEVKAIADGRVILADWLQGYGLVVVVEHGKGDMSLYGYNQSALVSVGSQVRAGQPIALVGSSGGQGRPSLYFEIRRQGQAVNPQPWLGR |  | binds | 
EnvC(ΔNterm) (co-expressed with the FtsX periplasmic domain) (domain or fragment, UniProt P37690 55-419) RQKQQQRASLLAQLKKQEEAISEATRKLRETQNTLNQLNKQIDEMNASIAKLEQQKAAQERSLAAQLDAAFRQGEHTGIQLILSGEESQRGQRLQAYFGYLNQARQETIAQLKQTREEVAMQRAELEEKQSEQQTLLYEQRAQQAKLTQALNERKKTLAGLESSIQQGQQQLSELRANESRLRNSIARAEAAAKARAEREAREAQAVRDRQKEATRKGTTYKPTESEKSLMSRTGGLGAPRGQAFWPVRGPTLHRYGEQLQGELRWKGMVIGASEGTEVKAIADGRVILADWLQGYGLVVVVEHGKGDMSLYGYNQSALVSVGSQVRAGQPIALVGSSGGQGRPSLYFEIRRQGQAVNPQPWLGR |  | binds | 
EnvC Glu233Arg (bacterial two-hybrid fusion) (protein, UniProt P37690 35-419) DERDQLKSIQADIAAKERAVRQKQQQRASLLAQLKKQEEAISEATRKLRETQNTLNQLNKQIDEMNASIAKLEQQKAAQERSLAAQLDAAFRQGEHTGIQLILSGEESQRGQRLQAYFGYLNQARQETIAQLKQTREEVAMQRAELEEKQSEQQTLLYEQRAQQAKLTQALNERKKTLAGLESSIQQGQQQLSELRANRSRLRNSIARAEAAAKARAEREAREAQAVRDRQKEATRKGTTYKPTESEKSLMSRTGGLGAPRGQAFWPVRGPTLHRYGEQLQGELRWKGMVIGASEGTEVKAIADGRVILADWLQGYGLVVVVEHGKGDMSLYGYNQSALVSVGSQVRAGQPIALVGSSGGQGRPSLYFEIRRQGQAVNPQPWLGR | binds |  | 

These are yes or no findings as the source states them, for the method shown. For some assays here: A result given as binding can be weak or reduced; the word gives no strength. For some assays here: Sequences can lack the tags named with a protein. For some assays here: In cells and extracts the contact can be indirect.
